From patent publication US20210261642A1, “SOLUBILITY OF GLP-1 PEPTIDE” (Novo Nordisk A/S, priority 2017, published 2021)
The source gives many values for each of these; only a part stands here.

Assay: Assay (I): Determination of Solubility (96-well plate, pH 3.0-11.0, organic solvent 0-70% w/w, UV absorption at 280 nm)
Assay type: physicochemical
Settings: Method 1 (evaporation)
Description: Assay (I): Determination of Solubility
96-Well Plate Preparation
96-well plates containing target peptide in a solid form were prepared in one of two ways:
Method 1 (evaporation): Addition of 100 μl stock solution of said peptide at a concentration of 4-6 mg/ml to each well of a 96-well half area plate (150 μl well size). Subsequently the solvent was evaporated by applying a vacuum until the solvent was completely removed.
Method 2 (precipitation): Addition of a certain volume of a stock solution of said peptide containing to each well of a 96-well half area plate followed by the addition of a certain volume of concentrated phosphoric acid to obtain a pH of 4.6 followed by addition of a certain volume of ethanol resulting in a final ethanol concentration of 20% v/v. Subsequently the plate was stored at 4° C. for 1 h and then centrifuged at 4,000 rpm for 20 min. Finally the supernatant was removed. The concentration of the stock solution was chosen in a way that the final amount of peptide after supernatant removal was >0.4 mg per well.
In both cases the stock solution was prepared by adding de-ionized water to a certain amount of powder of said peptide followed by a stepwise addition of small amounts of a concentrated sodium hydroxide solution until said peptide was completely in solution.
To determine solubility of a target peptide at different pH and organic solvent concentrations, two different buffer systems were used in independent experiments to cover the whole range from pH 3.0 to pH 11.0. Buffer system 1 covers pH 3.0-7.5 and buffer system 2 covers pH 7.5-11.0. For each buffer system 96 different solvent compositions were premixed in the following way: • 1. A low pH buffer (adjusted to either pH 3.0 or pH 7.5) and a high pH buffer (adjusted to either pH 7.5 or pH 11.0) were mixed at 8 different ratios to obtain values between pH 3.0 and pH 7.5 or pH 7.5 and pH 11.0, respectively. The total volume after mixing was 300 μl. • 2. 12 different amounts of organic solvent were then added to these buffers to obtain organic solvent (e.g. ethanol) concentrations between 0 and 70% w/w. • 3. Water was then added to obtain a total weight of 1.0 g of solvent in each well.
After preparing the 96 different solvent systems, 100 μl of each system was transferred to the 96-well plate containing the solid form of the target peptide (prepared as described in the section “96-well plate preparation”). The plate was then stored at a given temperature (between 5° C. and 70° C.) for a given time on a rotating shaker set to 400 rpm. At regular time intervals the plate was centrifuged (4,000 rpm for 10 min) and a 10 μl sample was taken from each well. The samples were then analysed by UV absorption at 280 nm for peptide quantification. Peptide concentration results are given as UV absorption at 280 nm of the sample subtracted UV absorption at 280 nm of a well comprising 10 μl water.
The buffers used were as follows: • Buffer system 1 (for the pH range from pH 3.0-7.5)
• Buffer system 2 (for the pH ranae from pH 7.5-11.0)
Solubility of liraglutide was determined using Assay (I) described herein. Liraglutide was prepared using Method 1 (evaporation) or Method 2 (precipitation) as described in subsection “96-well plate preparation”.

## CCCCCCCCCCCCCCCC(=O)N[C@@H](CCC(=O)NCCCC[C@H](NC(=O)[C@H](C)NC(=O)[C@H](C)NC(=O)[C@H](CCC(N)=O)NC(=O)CNC(=O)[C@H](CCC(=O)O)NC(=O)[C@H](CC(C)C)NC(=O)[C@H](Cc1ccc(O)cc1)NC(=O)[C@H](CO)NC(=O)[C@H](CO)NC(=O)[C@@H](NC(=O)[C@H](CC(=O)O)NC(=O)[C@H](CO)NC(=O)[C@@H](NC(=O)[C@H](Cc1ccccc1)NC(=O)[C@@H](NC(=O)CNC(=O)[C@H](CCC(=O)O)NC(=O)[C@H](C)NC(=O)[C@@H](N)Cc1cnc[nH]1)[C@@H](C)O)[C@@H](C)O)C(C)C)C(=O)N[C@@H](CCC(=O)O)C(=O)N[C@@H](Cc1ccccc1)C(=O)N[C@H](C(=O)N[C@@H](C)C(=O)N[C@@H](Cc1c[nH]c2ccccc12)C(=O)N[C@@H](CC(C)C)C(=O)N[C@H](C(=O)N[C@@H](CCCNC(=N)N)C(=O)NCC(=O)N[C@@H](CCCNC(=N)N)C(=O)NCC(=O)O)C(C)C)[C@@H](C)CC)C(=O)O [liraglutide, Arg34,Lys26-(N-epsilon-(gamma-L-glutamyl(N-alfa-hexadecanoyl)))-GLP-1(7-37)]
DMF 50.9% w/w, pH 5.8, RT
  Peptide concentration after 5 min: 0.3 mg/mL
  Peptide concentration after 180 min: 0.3 mg/mL
  Peptide concentration after 24 h: 0.2 mg/mL
DMF 50.9% w/w, pH 6.3, RT
  Peptide concentration after 5 min: 0.3 mg/mL
  Peptide concentration after 180 min: 0.3 mg/mL
  Peptide concentration after 24 h: 0.5 mg/mL
DMF 50.9% w/w, pH 6.7, RT
  Peptide concentration after 5 min: 0.3 mg/mL
  Peptide concentration after 180 min: 0.3 mg/mL
  Peptide concentration after 24 h: 0.4 mg/mL
DMF 50.9% w/w, pH 6.9, RT
  Peptide concentration after 5 min: 0.3 mg/mL
  Peptide concentration after 180 min: 0.4 mg/mL
  Peptide concentration after 24 h: 0.5 mg/mL
DMF 50.9% w/w, pH 7.2, RT
  Peptide concentration after 5 min: 0.3 mg/mL
  Peptide concentration after 180 min: 0.4 mg/mL
  Peptide concentration after 24 h: 0.7 mg/mL
DMF 50.9% w/w, pH 7.5, RT
  Peptide concentration after 5 min: 1.0 mg/mL
  Peptide concentration after 180 min: >4.0 mg/mL
DMF 50.9% w/w, pH 8.0, RT
  Peptide concentration after 5 min: 1.0 mg/mL
  Peptide concentration after 180 min: >4.0 mg/mL
DMF 50.9% w/w, pH 8.5, RT
  Peptide concentration after 5 min: 2.1 mg/mL
  Peptide concentration after 180 min: >4.0 mg/mL
DMF 50.9% w/w, pH 9.0, RT
  Peptide concentration after 5 min: 3.2 mg/mL
  Peptide concentration after 180 min: >4.0 mg/mL
DMF 50.9% w/w, pH 9.5, RT
  Peptide concentration after 5 min: 2.6 mg/mL
  Peptide concentration after 180 min: >4.0 mg/mL
DMF 50.9% w/w, pH 10.0, RT
  Peptide concentration after 5 min: 3.8 mg/mL
  Peptide concentration after 180 min: >4.0 mg/mL
DMF 50.9% w/w, pH 10.5, RT
  Peptide concentration after 5 min: 4.0 mg/mL
  Peptide concentration after 180 min: >4.0 mg/mL
DMF 50.9% w/w, pH 11.0, RT
  Peptide concentration after 5 min: 1.7 mg/mL
  Peptide concentration after 180 min: >4.0 mg/mL
DMF 57.3% w/w, pH 3.1, RT
  Peptide concentration after 5 min: 0.2 mg/mL
  Peptide concentration after 180 min: 0.2 mg/mL
  Peptide concentration after 24 h: 0.3 mg/mL
DMF 57.3% w/w, pH 4.8, RT
  Peptide concentration after 5 min: 0.2 mg/mL
  Peptide concentration after 180 min: 0.2 mg/mL
  Peptide concentration after 24 h: 0.2 mg/mL
DMF 57.3% w/w, pH 5.8, RT
  Peptide concentration after 5 min: 0.3 mg/mL
  Peptide concentration after 180 min: 0.3 mg/mL
  Peptide concentration after 24 h: 0.2 mg/mL
DMF 57.3% w/w, pH 6.3, RT
  Peptide concentration after 5 min: 0.2 mg/mL
  Peptide concentration after 180 min: 0.3 mg/mL
  Peptide concentration after 24 h: 0.4 mg/mL
DMF 57.3% w/w, pH 6.7, RT
  Peptide concentration after 5 min: 0.3 mg/mL
  Peptide concentration after 180 min: 0.3 mg/mL
  Peptide concentration after 24 h: 0.3 mg/mL
DMF 57.3% w/w, pH 6.9, RT
  Peptide concentration after 5 min: 0.7 mg/mL
  Peptide concentration after 180 min: 0.4 mg/mL
  Peptide concentration after 24 h: 0.4 mg/mL
DMF 57.3% w/w, pH 7.2, RT
  Peptide concentration after 5 min: 0.3 mg/mL
  Peptide concentration after 180 min: 0.4 mg/mL
  Peptide concentration after 24 h: 0.5 mg/mL
DMF 57.3% w/w, pH 7.5, RT
  Peptide concentration after 5 min: 1.6 mg/mL
  Peptide concentration after 180 min: >4.0 mg/mL
DMF 57.3% w/w, pH 8.0, RT
  Peptide concentration after 5 min: 1.3 mg/mL
  Peptide concentration after 180 min: >4.0 mg/mL
DMF 57.3% w/w, pH 8.5, RT
  Peptide concentration after 5 min: 3.3 mg/mL
  Peptide concentration after 180 min: >4.0 mg/mL
DMF 57.3% w/w, pH 9.0, RT
  Peptide concentration after 5 min: 2.7 mg/mL
  Peptide concentration after 180 min: >4.0 mg/mL
DMF 57.3% w/w, pH 9.5, RT
  Peptide concentration after 5 min: 2.5 mg/mL
  Peptide concentration after 180 min: >4.0 mg/mL
DMF 57.3% w/w, pH 10.0, RT
  Peptide concentration after 5 min: 3.1 mg/mL
  Peptide concentration after 180 min: >4.0 mg/mL
DMF 57.3% w/w, pH 10.5, RT
  Peptide concentration after 5 min: 3.7 mg/mL
  Peptide concentration after 180 min: >4.0 mg/mL
DMF 57.3% w/w, pH 11.0, RT
  Peptide concentration after 5 min: 2.1 mg/mL
  Peptide concentration after 180 min: >4.0 mg/mL
DMF 63.6% w/w, pH 3.1, RT
  Peptide concentration after 5 min: 0.3 mg/mL
  Peptide concentration after 180 min: 0.3 mg/mL
  Peptide concentration after 24 h: 0.4 mg/mL
DMF 63.6% w/w, pH 4.8, RT
  Peptide concentration after 5 min: 0.2 mg/mL
  Peptide concentration after 180 min: 0.2 mg/mL
  Peptide concentration after 24 h: 0.2 mg/mL
DMF 63.6% w/w, pH 5.8, RT
  Peptide concentration after 5 min: 0.2 mg/mL
  Peptide concentration after 180 min: 0.3 mg/mL
  Peptide concentration after 24 h: 0.3 mg/mL
DMF 63.6% w/w, pH 6.3, RT
  Peptide concentration after 5 min: 0.2 mg/mL
  Peptide concentration after 180 min: 0.3 mg/mL
  Peptide concentration after 24 h: 0.3 mg/mL
DMF 63.6% w/w, pH 6.7, RT
  Peptide concentration after 5 min: 0.3 mg/mL
  Peptide concentration after 180 min: 0.3 mg/mL
  Peptide concentration after 24 h: 0.3 mg/mL
DMF 63.6% w/w, pH 6.9, RT
  Peptide concentration after 5 min: 0.3 mg/mL
  Peptide concentration after 180 min: 0.4 mg/mL
  Peptide concentration after 24 h: 0.3 mg/mL
DMF 63.6% w/w, pH 7.2, RT
  Peptide concentration after 5 min: 0.4 mg/mL
  Peptide concentration after 180 min: 0.5 mg/mL
  Peptide concentration after 24 h: 0.5 mg/mL
DMF 63.6% w/w, pH 7.5, RT
  Peptide concentration after 5 min: 3.4 mg/mL
  Peptide concentration after 180 min: >4.0 mg/mL
DMF 63.6% w/w, pH 8.0, RT
  Peptide concentration after 5 min: 1.6 mg/mL
  Peptide concentration after 180 min: >4.0 mg/mL
DMF 63.6% w/w, pH 8.5, RT
  Peptide concentration after 5 min: 3.8 mg/mL
  Peptide concentration after 180 min: >4.0 mg/mL
DMF 63.6% w/w, pH 9.0, RT
  Peptide concentration after 5 min: 3.1 mg/mL
  Peptide concentration after 180 min: >4.0 mg/mL
DMF 63.6% w/w, pH 9.5, RT
  Peptide concentration after 5 min: 2.9 mg/mL
  Peptide concentration after 180 min: >4.0 mg/mL
DMF 63.6% w/w, pH 10.0, RT
  Peptide concentration after 5 min: 3.7 mg/mL
